We go through three molecules from paper PMC9133052.

These are yes or no findings as the source states them, for the method shown. Binding can be weak; no strength is given. For part of these data: Tags and fused reporters may be left off the sequences shown. For part of these data: Binding seen in cells or lysates may run through a third protein.

In one test the target is T1, His-tagged Ythdf2 (UniProt E9PU11).
T1 sequence: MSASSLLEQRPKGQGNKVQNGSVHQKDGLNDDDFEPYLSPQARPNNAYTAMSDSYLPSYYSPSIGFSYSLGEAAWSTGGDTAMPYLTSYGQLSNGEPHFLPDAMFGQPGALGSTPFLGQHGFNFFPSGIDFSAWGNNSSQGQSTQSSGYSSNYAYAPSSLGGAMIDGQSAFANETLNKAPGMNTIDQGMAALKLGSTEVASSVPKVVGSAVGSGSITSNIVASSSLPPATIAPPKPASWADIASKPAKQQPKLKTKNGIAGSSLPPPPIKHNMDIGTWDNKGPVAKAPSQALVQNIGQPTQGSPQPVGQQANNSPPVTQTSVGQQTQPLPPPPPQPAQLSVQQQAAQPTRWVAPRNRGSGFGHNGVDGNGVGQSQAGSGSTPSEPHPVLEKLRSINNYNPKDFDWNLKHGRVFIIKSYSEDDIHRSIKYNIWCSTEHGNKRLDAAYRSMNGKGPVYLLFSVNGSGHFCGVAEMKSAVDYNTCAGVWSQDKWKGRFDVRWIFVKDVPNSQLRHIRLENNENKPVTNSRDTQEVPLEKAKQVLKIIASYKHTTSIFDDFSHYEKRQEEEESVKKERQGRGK
Briefly: SPR; Biacore 8K, 25 °C, His-tagged protein captured on NTA chip (100-150 RU), analyte proteins without His tag 3-100 nM injected 100 s, dissociation 150 s, HBS-P+ running buffer; both purified.

The target in test [1] is Nsun4 (rat (endogenous in BMSCs)). The test can be described thus: co-IP; endogenous proteins immunoprecipitated from rat BMSC lysates (with or without chondrogenic induction) with Nsun4 or Mettl3 antibody and corresponding IgG, Pierce Direct Magnetic IP/Co-IP kit, western blot.
The target in a further test is His-tagged Mettl3. The test can be described thus: SPR; Biacore 8K, 25 °C, His-tagged protein captured on NTA chip (100-150 RU), analyte proteins without His tag 3-100 nM injected 100 s, dissociation 150 s, HBS-P+ running buffer; both purified. On the technique in general: Surface plasmon resonance follows binding to a sensor surface in real time, without labels.

Nsun4 (His tag cleaved): the binding entry with His-tagged Ythdf2 is “binds”.

B1: Ythdf2 (protein, UniProt E9PU11 1-579)
chain: T1 sequence
For B1, the binding result in test [1] is listed as “binds”.

B2: Ythdf2 (His tag cleaved) (protein, UniProt E9PU11 1-579)
chain: T1 sequence
For the molecule B2, the binding entry with His-tagged Mettl3 was “binds”.
